Measured values as given in PubChem BioAssay AID493014 (National Center for Advancing Translational Sciences (NCATS), 2011).
This is one part of the list. These are further read-outs of the screen, such as a control signal, another cell line or another target. No call is given for them. Compounds called inactive in the main read-out are mostly missing here. Potencies come from curve fits of mixed quality, noted in brackets.

Assay: qHTS Assay to Find Inhibitors of Chronic Active B-Cell Receptor Signaling
Settings: ABC-DLBCL IkBa-CBG/CBR reporter, luminescence ratio (green luciferase fused to IkBa over red control in TMD8 lymphoma cells), 4 h
How it was run: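 TMD8 ABC-DLBCL cells carrying doxycycline-inducible green luciferase fused to IkappaBalpha plus unfused red luciferase were exposed to compounds (up to 46 uM) for 4 hrs at 37C. Activity came from the overlap-corrected green/red luminescence ratio.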

[1] = measured here: CBR red luminescence, cell number
[2] = measured here: IkBa-CBG green luminescence

| SMILES | AC50 [1] | AC50 [2] |
| --- | --- | --- |
| Cc1c(C(=O)N(Cc2ccccc2)C2CCS(=O)(=O)C2)oc2ccccc12 (stereo not given) | 20 µM [falling, single point] | – |
| Cc1cc(C)c(S(=O)(=O)N2CCCOC2CNC(=O)C(=O)NCc2cccnc2)c(C)c1 (stereo not given) | 10 µM [rising, partial curve, poor fit] | – |
| O=C(Nc1nc2ccccc2[nH]1)c1ccccc1O | 0.355 µM [falling, full curve] | 3.98 µM [rising, single point] |
| CCOC(=O)Cn1c(=O)n(Cc2ccco2)c(=O)c2ccc(C(=O)NC3CCCC3)cc21 | 29.1 µM [falling, single point] | 0.461 µM [rising, full curve] |
| CCN(CC(=O)Nc1ccccc1C(F)(F)F)C(=O)c1oc2ccc(OC)cc2c1C | 29.1 µM [rising, single point] | – |
| CCN(CC)CCCNc1nc2ccccc2c2nc(-c3ccncc3)nn12 | 15.8 µM [falling, single point] | – |
| O=C(NC(=O)c1ccccc1Cl)C(=O)Nc1ccc(Cl)cc1 | 0.398 µM [falling, full curve, poor fit] | – |
| N#C/C(=C(/O)c1ccc(Cl)cc1)c1nc2ccccc2[nH]1 | 0.891 µM [falling, full curve] | – |
| COCc1cc(C)nc(SCC(=O)Oc2ccccc2)c1C#N | 3.55 µM [rising, full curve] | – |
| CN1CCN(S(=O)(=O)c2cccc(C(=O)N(c3ccccn3)C3CCCCC3)c2)CC1 | 22.4 µM [falling, single point] | – |
| CCOC(=O)c1cnc2ccc(OCC)cc2c1NCc1ccccc1 | 25.9 µM [falling, single point] | – |
| COc1cc2c(cc1OC)C(C)N(C(=O)c1c(-c3ccccc3)noc1C)CC2 (stereo not given) | 35.5 µM [falling, single point] | – |
| FC(F)(F)c1cccc(NC(=S)NNC(=S)Nc2ccc(Cl)cc2)c1 | 2.51 µM [rising, partial curve, poor fit] | – |
| Cc1ccc(CNc2nc3ccccc3n3cnnc23)cc1 | 0.13 µM [rising, full curve, poor fit] | – |
| CCCCNC(=S)N(C)/N=C/c1ccccc1C(=O)O | 0.58 µM [falling, full curve, poor fit] | – |
| CN(C)S(=O)(=O)c1ccc(C(=O)NCCOc2ccccc2)cc1 | 16.4 µM [rising, partial curve, poor fit] | – |
| CC1(C)Cc2c(c(N3CCOCC3)nc3sc(-c4ccc(C(=O)O)o4)c(N)c23)CO1 | 29.1 µM [falling, partial curve, poor fit] | – |
| COc1ccc(Cc2nc(-c3cccs3)no2)cc1 | 3.98 µM [rising, full curve, poor fit] | – |
| O=C(COc1ccccc1[N+](=O)[O-])N1CCC(Cc2ccccc2)CC1 | 10 µM [falling, partial curve] | – |
| CCC(C)(C)c1nnc(NC(=O)c2cccc([N+](=O)[O-])c2)s1 | 2.31 µM [rising, partial curve] | – |
| Cc1ccccc1NC(=O)C1Cc2ccccc2CN1C(=O)c1ccco1 (stereo not given) | 1.58 µM [falling, partial curve, poor fit] | – |

| SMILES | AC50 [1] | AC50 [2] |
| --- | --- | --- |
| O=C(COC(=O)CNC(=O)c1ccccc1)Nc1ccc(Cl)cn1 | 6.51 µM [rising, single point] | – |
| CCOc1ccccc1C(=O)Nc1cccc(-c2ccc(N3CCOCC3)nn2)c1 | 18.4 µM [falling, single point] | – |
| CC(C)OCC(O)CSc1ccccn1 (stereo not given) | 17.8 µM [rising, single point] | – |
| Cn1c(O)c(N=Nc2nc(-c3ccccc3)cs2)c2ccccc21 | 0.326 µM [falling, full curve] | – |
| CC1=NN(c2ccccc2)C(=O)C1C=Nc1ccccc1O (stereo not given) | 1.41 µM [falling, full curve, poor fit] | – |
| Cc1ccc(NC(=O)CNC(c2ccccc2)c2ccccc2)c(F)c1 | 2.91 µM [rising, single point] | – |
| COC(=O)c1ccccc1NC(=O)NCc1ccccn1 | 6.51 µM [falling, partial curve, poor fit] | – |
| COc1ccc2nc(NC(=O)c3cccc(S(=O)(=O)N4CCOCC4)c3)sc2c1 | 3.98 µM [falling, partial curve, poor fit] | – |
| CCc1ccccc1NC(=O)C1COc2ccccc2O1 (stereo not given) | 10 µM [rising, partial curve, poor fit] | – |
| Cc1cccc(-c2noc(-c3ccoc3C)n2)c1 | 35.5 µM [rising, single point] | – |
| Cc1cc(F)ccc1S(=O)(=O)Nc1ccc(C(=O)N(C)Cc2ccco2)cc1 | 25.9 µM [rising, single point] | – |
| CCN1CCCc2cc(CN(CCN3CCOCC3)C(=O)Nc3ccc(C)c(C)c3)ccc21 | 20.6 µM [falling, single point] | – |
| Cc1ccccc1-c1nnc(SCCOc2ccc3c(C)cc(=O)oc3c2)o1 | 29.1 µM [rising, single point] | – |
| CSCc1ccc(C(=O)Nc2cccc(C)c2C)cc1 | 1.46 µM [falling, full curve] | – |
| CCOc1ccccc1N1CCN(C(=O)c2cc3ccccc3cc2OC)CC1 | 25.9 µM [rising, single point] | 18.4 µM [falling, single point] |
| O=C1C(Cl)=C(Nc2ccc(O)cc2)C(=O)c2ccccc21 | 35.5 µM [falling, single point] | 11.2 µM [rising, partial curve, poor fit] |
| COc1ccc(C(C)=O)cc1CSc1nc2ccccc2c(=O)n1-c1ccccc1C | – | 5.17 µM [falling, partial curve, poor fit] |
| Cc1ccc(OCc2nc(-c3ccc(-n4cccc4)cc3)no2)cc1C | 2.31 µM [falling, single point] | – |
| COc1ccc(-c2cc(C(=O)Nc3ccccc3SC)no2)cc1OC | 0.355 µM [falling, partial curve, poor fit] | – |
| Nc1ccc(C(=O)N/N=C\c2cc(N=Nc3cccc4ccccc34)ccc2O)cc1 | 11.2 µM [falling, partial curve, poor fit] | – |

Single records, as listed above. Order of values: AC50 [1]	AC50 [2]
CC1=NN(c2ccccc2)C(=O)C1C=Nc1ccccc1O (stereo not given) is listed with 1.41 µM [falling, full curve, poor fit]	–
COC(=O)c1ccccc1NC(=O)NCc1ccccn1 is listed with 6.51 µM [falling, partial curve, poor fit]	–
